According to PMC4746772:
These are yes or no findings as the source states them, for the method shown. Some entries that bind do so weakly or less than the wild type.

Sequences of proteins named here, by UniProt entry; tags and fusion partners are left off. A change or cut given only in a name is not applied to a line headed by its entry. Residues count along the entry.
UniProt P14190: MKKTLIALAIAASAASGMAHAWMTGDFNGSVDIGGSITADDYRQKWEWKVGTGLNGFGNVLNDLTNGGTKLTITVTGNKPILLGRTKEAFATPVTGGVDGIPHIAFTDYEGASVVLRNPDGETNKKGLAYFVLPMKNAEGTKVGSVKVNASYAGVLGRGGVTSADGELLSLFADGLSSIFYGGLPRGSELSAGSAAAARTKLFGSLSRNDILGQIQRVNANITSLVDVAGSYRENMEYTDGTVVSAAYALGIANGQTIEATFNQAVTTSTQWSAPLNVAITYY
GST-FaeG F4ac (pGEX-6p-1-FaeG F4ac) (Escherichia coli (F4ac ETEC)): residues 22-283 of P14190
UniProt P02970: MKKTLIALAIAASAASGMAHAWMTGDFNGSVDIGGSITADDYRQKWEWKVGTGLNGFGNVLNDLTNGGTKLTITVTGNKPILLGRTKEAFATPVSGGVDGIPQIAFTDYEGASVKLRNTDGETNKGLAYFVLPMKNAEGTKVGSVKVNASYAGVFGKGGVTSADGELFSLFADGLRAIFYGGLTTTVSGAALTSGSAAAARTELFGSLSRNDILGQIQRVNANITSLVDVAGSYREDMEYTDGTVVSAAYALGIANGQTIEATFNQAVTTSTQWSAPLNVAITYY
UniProt P14191: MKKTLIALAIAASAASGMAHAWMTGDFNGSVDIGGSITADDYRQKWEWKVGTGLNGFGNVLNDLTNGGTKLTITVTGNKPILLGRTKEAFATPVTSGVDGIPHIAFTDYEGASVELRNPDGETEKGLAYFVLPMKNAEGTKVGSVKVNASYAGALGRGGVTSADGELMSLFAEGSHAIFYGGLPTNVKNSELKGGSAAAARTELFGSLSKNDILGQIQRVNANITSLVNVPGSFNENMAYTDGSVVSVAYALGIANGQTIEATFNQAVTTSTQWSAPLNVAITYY

How the values were obtained:
[1] = biological target: T1, porcine aminopeptidase N in pGBKT7 (pGBKT7-APN) (pig (porcine)) (UniProt P15145); assay: two-hybrid; pGADT7-FaeG and pGBKT7-APN in S. cerevisiae AH109 (Clontech); selection on SD/-Ade/-His/-Leu/-Trp, β-galactosidase activity
T1 sequence: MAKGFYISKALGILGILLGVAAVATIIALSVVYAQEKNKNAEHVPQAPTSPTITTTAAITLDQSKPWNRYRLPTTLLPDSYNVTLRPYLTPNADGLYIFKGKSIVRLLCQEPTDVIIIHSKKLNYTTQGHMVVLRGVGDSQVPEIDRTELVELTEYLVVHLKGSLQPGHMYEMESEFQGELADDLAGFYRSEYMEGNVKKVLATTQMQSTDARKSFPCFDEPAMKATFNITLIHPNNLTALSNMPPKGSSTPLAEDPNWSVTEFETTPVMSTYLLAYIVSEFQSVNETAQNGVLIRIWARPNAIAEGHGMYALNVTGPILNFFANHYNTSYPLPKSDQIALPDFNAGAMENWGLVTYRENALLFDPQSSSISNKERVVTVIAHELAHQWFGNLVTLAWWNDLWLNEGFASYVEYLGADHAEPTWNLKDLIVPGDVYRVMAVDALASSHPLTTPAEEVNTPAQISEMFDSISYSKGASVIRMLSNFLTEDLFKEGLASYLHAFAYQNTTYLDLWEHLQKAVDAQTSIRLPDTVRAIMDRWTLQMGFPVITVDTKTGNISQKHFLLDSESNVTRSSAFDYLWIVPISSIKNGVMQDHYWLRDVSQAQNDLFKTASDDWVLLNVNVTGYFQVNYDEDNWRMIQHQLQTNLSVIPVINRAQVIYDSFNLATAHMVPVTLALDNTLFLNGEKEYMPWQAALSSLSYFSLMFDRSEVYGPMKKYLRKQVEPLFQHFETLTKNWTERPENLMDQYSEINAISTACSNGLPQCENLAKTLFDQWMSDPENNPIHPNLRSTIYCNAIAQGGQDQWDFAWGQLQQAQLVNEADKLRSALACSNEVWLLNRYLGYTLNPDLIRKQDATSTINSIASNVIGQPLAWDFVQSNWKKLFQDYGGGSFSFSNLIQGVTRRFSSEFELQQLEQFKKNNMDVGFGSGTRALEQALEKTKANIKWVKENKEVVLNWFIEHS

[2] = biological target: GST-FaeG F4ac (pGEX-6p-1-FaeG F4ac) (Escherichia coli (F4ac ETEC)) (UniProt P14190); assay: pull-down; Pierce GST Protein Interaction Pull-Down Kit, GST-FaeG fusion as bait; SDS-PAGE and Western blot with anti-F4 monoclonal and anti-APN polyclonal antibodies; in some cases the PVDF membranes were treated with 0-20 mM NaIO4 before blotting; both purified

“F4ab FaeG in pGADT7 (pGADT7-FaeG) (from UniProt P02970 1-285)” was tested, and the binding [1] was “binds”.

“F4ac FaeG in pGADT7 (pGADT7-FaeG) (from UniProt P14190 1-283)” was tested, and the binding [1] was “binds”.

In the case of “F4ad FaeG in pGADT7 (pGADT7-FaeG) (from UniProt P14191 1-285)”, the binding [1] is reported as “binds”.

B1: porcine aminopeptidase N, recombinant protein (receptor, UniProt P15145 1-963)
chain: MAKGFYISKALGILGILLGVAAVATIIALSVVYAQEKNKNAEHVPQAPTSPTITTTAAITLDQSKPWNRYRLPTTLLPDSYNVTLRPYLTPNADGLYIFKGKSIVRLLCQEPTDVIIIHSKKLNYTTQGHMVVLRGVGDSQVPEIDRTELVELTEYLVVHLKGSLQPGHMYEMESEFQGELADDLAGFYRSEYMEGNVKKVLATTQMQSTDARKSFPCFDEPAMKATFNITLIHPNNLTALSNMPPKGSSTPLAEDPNWSVTEFETTPVMSTYLLAYIVSEFQSVNETAQNGVLIRIWARPNAIAEGHGMYALNVTGPILNFFANHYNTSYPLPKSDQIALPDFNAGAMENWGLVTYRENALLFDPQSSSISNKERVVTVIAHELAHQWFGNLVTLAWWNDLWLNEGFASYVEYLGADHAEPTWNLKDLIVPGDVYRVMAVDALASSHPLTTPAEEVNTPAQISEMFDSISYSKGASVIRMLSNFLTEDLFKEGLASYLHAFAYQNTTYLDLWEHLQKAVDAQTSIRLPDTVRAIMDRWTLQMGFPVITVDTKTGNISQKHFLLDSESNVTRSSAFDYLWIVPISSIKNGVMQDHYWLRDVSQAQNDLFKTASDDWVLLNVNVTGYFQVNYDEDNWRMIQHQLQTNLSVIPVINRAQVIYDSFNLATAHMVPVTLALDNTLFLNGEKEYMPWQAALSSLSYFSLMFDRSEVYGPMKKYLRKQVEPLFQHFETLTKNWTERPENLMDQYSEINAISTACSNGLPQCENLAKTLFDQWMSDPENNPIHPNLRSTIYCNAIAQGGQDQWDFAWGQLQQAQLVNEADKLRSALACSNEVWLLNRYLGYTLNPDLIRKQDATSTINSIASNVIGQPLAWDFVQSNWKKLFQDYGGGSFSFSNLIQGVTRRFSSEFELQQLEQFKKNNMDVGFGSGTRALEQALEKTKANIKWVKENKEVVLNWFIEHS
B1 was tested, and the binding [2] was “binds”.
